The target in assay [1] is GFP-RNF213 (Homo sapiens (Human)) (UniProt Q63HN8). The experiment in a line: anti-FLAG co-immunoprecipitation/immunoblot of GFP-RNF213, AU565 RNF213-KO-PTPN1-KD cells (FIG. 7E).
For assay [2] the target is unchanged. Briefly: anti-FLAG co-immunoprecipitation/immunoblot of GFP-RNF213, BT474 RNF213-KO-PTPN1-KD cells (FIG. 1C). (In general: Immunoblotting shows a protein as a band on a membrane.)
Assay [3] has the same target. The experiment in a line: anti-FLAG co-immunoprecipitation/immunoblot (oligomerization).

Chains of the proteins cited; added tags and fusions are not shown. Lines headed by an entry give the natural chain unless they say otherwise; changes in a name come on top.
UniProt Q63HN8: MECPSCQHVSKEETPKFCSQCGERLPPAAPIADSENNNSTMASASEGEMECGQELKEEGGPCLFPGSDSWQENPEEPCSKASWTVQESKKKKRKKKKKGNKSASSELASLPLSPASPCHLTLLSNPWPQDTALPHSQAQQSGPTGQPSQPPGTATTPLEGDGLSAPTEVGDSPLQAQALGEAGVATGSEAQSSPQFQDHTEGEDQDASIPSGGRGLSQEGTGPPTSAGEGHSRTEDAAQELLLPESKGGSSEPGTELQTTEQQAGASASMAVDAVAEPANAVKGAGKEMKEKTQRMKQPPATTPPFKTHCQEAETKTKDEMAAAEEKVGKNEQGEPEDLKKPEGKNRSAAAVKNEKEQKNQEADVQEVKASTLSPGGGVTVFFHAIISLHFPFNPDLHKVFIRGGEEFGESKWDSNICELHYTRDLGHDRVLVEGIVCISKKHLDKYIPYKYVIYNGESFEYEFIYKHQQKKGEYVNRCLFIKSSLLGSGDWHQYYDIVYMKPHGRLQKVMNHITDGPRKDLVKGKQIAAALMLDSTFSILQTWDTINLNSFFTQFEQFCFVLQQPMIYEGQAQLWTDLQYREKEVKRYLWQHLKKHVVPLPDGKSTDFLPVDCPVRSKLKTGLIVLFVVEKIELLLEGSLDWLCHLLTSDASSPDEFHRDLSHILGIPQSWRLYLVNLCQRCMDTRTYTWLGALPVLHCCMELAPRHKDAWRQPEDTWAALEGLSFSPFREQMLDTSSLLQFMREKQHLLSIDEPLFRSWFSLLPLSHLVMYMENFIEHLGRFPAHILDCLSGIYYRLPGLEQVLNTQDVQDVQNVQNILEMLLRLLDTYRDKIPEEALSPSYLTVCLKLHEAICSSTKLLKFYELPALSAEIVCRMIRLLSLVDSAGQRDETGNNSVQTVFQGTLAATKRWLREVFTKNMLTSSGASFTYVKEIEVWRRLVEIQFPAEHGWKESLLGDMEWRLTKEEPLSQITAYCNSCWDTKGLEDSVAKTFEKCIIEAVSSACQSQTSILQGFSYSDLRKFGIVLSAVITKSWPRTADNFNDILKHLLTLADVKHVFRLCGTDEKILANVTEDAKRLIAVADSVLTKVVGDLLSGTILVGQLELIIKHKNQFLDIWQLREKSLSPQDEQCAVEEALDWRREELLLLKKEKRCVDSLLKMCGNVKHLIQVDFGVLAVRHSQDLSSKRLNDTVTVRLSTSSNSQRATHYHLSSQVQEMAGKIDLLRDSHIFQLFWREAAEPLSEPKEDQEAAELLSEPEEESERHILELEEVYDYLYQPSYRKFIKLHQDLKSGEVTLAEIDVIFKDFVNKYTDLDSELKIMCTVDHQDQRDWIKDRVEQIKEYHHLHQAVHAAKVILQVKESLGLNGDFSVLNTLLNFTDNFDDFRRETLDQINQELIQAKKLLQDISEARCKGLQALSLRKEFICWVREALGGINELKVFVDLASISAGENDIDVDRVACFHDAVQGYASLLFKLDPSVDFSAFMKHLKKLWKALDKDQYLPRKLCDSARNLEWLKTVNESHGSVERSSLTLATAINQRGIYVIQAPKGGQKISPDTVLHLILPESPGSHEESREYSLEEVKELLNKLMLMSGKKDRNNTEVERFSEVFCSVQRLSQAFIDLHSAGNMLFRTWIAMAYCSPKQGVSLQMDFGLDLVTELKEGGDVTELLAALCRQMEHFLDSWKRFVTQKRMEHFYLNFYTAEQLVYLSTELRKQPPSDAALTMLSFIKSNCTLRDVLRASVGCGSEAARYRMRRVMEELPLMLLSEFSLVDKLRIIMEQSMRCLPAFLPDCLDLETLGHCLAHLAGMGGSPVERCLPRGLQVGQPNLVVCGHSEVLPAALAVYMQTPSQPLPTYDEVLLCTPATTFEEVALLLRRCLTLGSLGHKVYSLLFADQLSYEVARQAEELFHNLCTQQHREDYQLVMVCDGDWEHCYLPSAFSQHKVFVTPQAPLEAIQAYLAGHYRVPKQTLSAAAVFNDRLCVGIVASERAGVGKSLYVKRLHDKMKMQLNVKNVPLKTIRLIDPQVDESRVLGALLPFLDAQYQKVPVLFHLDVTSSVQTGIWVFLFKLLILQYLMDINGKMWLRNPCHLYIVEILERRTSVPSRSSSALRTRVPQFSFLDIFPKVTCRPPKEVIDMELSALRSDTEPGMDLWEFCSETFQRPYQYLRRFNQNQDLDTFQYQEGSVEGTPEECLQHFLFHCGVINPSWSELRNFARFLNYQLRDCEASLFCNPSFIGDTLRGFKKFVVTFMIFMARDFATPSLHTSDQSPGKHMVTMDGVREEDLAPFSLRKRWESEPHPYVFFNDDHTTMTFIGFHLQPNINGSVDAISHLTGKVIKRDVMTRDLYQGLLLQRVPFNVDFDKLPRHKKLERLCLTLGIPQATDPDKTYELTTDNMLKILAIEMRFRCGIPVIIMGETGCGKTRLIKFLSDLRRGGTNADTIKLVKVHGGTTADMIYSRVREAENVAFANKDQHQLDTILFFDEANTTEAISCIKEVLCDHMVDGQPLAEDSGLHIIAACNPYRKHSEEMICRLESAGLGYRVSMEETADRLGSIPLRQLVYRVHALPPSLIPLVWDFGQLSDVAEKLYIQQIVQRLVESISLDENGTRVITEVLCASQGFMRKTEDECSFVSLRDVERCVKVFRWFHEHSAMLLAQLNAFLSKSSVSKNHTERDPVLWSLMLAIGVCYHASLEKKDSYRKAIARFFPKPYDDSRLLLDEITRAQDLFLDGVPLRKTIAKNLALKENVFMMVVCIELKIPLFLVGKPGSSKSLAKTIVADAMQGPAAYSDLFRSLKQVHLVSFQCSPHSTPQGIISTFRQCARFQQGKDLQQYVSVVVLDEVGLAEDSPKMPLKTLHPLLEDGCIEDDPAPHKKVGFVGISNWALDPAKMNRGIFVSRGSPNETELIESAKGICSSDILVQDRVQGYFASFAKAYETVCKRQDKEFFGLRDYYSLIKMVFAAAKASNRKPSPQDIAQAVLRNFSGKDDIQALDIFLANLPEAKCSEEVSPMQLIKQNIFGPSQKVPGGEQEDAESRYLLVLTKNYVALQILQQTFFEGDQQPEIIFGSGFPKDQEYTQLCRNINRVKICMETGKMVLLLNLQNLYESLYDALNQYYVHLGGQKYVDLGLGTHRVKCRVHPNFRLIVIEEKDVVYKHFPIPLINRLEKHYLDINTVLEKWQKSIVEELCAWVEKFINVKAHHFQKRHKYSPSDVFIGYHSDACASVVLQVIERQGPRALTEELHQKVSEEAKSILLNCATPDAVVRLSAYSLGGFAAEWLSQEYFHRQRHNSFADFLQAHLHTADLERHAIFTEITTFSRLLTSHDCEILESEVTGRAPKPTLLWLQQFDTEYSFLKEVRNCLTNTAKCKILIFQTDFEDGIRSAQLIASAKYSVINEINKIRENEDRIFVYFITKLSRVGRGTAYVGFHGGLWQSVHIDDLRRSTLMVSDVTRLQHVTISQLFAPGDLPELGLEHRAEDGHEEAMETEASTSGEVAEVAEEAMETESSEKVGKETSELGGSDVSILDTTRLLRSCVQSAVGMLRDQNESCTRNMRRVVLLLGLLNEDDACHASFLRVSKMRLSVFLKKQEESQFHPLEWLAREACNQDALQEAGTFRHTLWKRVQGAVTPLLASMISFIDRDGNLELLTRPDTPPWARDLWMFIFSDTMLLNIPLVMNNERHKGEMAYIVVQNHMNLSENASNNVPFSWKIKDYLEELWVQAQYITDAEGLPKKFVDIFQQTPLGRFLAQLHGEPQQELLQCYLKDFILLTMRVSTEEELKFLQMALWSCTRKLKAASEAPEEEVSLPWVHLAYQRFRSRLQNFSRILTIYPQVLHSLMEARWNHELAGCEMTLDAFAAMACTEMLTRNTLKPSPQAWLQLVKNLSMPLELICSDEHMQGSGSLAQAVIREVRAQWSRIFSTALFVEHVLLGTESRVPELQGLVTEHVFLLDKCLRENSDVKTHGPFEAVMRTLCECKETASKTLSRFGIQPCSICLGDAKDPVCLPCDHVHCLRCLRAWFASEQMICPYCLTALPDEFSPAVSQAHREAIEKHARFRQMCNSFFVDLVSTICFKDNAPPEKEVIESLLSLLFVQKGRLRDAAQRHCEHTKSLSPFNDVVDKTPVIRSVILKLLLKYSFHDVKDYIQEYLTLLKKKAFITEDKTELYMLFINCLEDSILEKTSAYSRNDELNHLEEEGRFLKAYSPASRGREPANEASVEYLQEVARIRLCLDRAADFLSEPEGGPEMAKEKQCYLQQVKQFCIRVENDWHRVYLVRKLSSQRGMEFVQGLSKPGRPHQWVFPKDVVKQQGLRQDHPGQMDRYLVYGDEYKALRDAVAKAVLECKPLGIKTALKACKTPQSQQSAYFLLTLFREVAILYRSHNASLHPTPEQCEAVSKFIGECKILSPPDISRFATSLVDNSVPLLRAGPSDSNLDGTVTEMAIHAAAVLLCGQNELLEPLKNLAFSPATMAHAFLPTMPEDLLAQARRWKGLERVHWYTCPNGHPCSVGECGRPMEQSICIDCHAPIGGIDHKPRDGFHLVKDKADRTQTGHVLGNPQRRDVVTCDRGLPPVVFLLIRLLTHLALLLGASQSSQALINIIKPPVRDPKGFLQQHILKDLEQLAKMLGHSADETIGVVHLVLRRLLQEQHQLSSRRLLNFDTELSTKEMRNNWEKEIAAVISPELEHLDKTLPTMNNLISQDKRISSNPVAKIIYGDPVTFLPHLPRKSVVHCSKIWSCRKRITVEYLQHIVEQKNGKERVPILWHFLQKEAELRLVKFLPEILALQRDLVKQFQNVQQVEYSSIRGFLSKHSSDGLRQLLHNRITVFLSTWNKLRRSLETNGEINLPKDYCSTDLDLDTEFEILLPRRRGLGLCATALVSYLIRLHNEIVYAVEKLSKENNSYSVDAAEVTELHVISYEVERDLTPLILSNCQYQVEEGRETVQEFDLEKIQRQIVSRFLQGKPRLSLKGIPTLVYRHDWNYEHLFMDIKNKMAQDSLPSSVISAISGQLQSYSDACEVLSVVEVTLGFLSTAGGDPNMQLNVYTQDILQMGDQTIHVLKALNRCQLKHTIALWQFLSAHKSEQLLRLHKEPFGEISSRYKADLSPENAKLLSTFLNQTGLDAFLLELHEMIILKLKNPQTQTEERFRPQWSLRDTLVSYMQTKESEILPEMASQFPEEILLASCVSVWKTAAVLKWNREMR

The record followed here is patent US20250025478A1.

Results are given in words; binding and its absence hold for the method and conditions named. Binding seen in cells or lysates may run through a third protein. Some entries that bind do so weakly or less than the wild type.

In the case of “3×-FLAG-RNF213 (from UniProt Q63HN8 1-5207) (enzyme)”, the binding result in assay [1] and in assay [2] was “binds” throughout.

On to “3×-FLAG-RNF213^Y1275F (from UniProt Q63HN8 1-5207) (enzyme)”, for which, in assay [3], the binding entry is listed as “binds”.
